No constants are given. Whether binding was seen depends on the method and setting. In cells and extracts the contact can be indirect. Binding can be weak; no strength is given.
Target: kinase-deficient MAP4K4 variant (K54A in the text, K54R in the legend) (human) (UniProt O95819)
Test: co-IP; cotransfected cells lysed in IPB buffer (137 mM NaCl, 20 mM Tris pH 7.5, 1% NP-40, 10% glycerol); immunoprecipitation with anti-FLAG, anti-HA or anti-MAP4K4 antibody (control IgG), immunoblot

Sequences of proteins named here, by UniProt entry; tags and fusion partners are left off. A change or cut given only in a name is not applied to a line headed by its entry.
UniProt O95819: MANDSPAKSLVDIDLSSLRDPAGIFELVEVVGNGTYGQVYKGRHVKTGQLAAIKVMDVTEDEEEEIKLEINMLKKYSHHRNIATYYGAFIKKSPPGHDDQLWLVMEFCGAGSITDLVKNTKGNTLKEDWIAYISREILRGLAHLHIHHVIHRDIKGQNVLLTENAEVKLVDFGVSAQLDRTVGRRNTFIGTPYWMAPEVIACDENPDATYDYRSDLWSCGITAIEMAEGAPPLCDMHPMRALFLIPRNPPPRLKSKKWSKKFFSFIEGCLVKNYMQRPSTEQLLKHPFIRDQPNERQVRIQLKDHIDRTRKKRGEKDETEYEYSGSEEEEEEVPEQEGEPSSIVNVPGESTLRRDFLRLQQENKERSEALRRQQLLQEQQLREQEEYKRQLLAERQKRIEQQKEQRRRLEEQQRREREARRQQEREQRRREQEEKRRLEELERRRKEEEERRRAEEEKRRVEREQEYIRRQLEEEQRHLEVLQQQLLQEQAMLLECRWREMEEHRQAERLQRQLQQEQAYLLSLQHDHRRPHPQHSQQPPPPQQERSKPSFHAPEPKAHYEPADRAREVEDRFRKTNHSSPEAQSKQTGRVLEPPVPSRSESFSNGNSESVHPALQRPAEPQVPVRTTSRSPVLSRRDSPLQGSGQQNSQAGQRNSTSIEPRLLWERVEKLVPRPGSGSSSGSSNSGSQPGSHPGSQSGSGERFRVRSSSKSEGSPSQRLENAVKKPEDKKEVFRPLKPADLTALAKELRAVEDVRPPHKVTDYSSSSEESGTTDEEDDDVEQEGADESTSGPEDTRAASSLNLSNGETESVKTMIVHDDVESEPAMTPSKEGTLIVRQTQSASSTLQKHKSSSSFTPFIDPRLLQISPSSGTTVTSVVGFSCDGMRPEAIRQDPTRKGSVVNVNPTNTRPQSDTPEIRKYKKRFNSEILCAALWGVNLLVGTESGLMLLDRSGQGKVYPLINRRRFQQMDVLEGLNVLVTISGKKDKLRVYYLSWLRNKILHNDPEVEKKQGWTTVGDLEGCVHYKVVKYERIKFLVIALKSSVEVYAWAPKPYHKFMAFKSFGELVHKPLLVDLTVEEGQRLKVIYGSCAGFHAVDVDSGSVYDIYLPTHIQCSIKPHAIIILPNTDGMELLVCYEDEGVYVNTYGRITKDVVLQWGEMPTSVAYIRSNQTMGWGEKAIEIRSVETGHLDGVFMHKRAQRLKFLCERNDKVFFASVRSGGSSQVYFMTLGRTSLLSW
UniProt Q14289: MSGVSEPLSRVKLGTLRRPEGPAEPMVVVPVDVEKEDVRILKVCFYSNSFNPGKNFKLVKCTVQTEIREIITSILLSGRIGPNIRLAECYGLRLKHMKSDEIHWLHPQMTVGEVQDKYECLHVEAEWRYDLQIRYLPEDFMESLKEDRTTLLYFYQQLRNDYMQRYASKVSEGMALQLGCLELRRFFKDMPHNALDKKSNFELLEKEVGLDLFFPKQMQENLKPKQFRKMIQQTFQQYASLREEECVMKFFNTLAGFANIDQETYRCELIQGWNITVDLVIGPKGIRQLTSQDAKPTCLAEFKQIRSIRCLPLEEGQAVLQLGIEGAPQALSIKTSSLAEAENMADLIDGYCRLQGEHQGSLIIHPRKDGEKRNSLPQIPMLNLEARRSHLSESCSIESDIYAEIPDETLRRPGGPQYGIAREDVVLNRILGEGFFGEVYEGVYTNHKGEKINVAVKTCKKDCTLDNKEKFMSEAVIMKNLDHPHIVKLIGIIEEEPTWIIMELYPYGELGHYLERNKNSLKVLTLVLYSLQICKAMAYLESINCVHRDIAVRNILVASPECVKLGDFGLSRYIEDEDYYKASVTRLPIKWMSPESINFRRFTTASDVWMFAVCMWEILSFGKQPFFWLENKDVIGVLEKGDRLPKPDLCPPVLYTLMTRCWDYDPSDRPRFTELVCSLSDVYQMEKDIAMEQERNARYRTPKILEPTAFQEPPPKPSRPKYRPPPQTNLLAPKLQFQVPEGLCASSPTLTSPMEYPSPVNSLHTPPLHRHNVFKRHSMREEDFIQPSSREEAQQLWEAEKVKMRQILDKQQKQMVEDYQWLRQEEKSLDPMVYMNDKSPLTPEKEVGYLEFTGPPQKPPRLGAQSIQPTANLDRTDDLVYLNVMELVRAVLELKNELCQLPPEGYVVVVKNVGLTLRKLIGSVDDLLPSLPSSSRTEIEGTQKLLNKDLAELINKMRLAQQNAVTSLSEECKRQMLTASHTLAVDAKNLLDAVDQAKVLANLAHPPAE

- binding: binds
Substance: FLAG-tagged Pyk2 (wild type) (from UniProt Q14289 1-1009)

From paper PMC3791834
